Laboratory results from doi:10.1101/660712.
These are yes or no findings as the source states them, for the method shown. Binding seen in cells or lysates may run through a third protein. Some entries that bind do so weakly or less than the wild type.

Amino acid sequences for entries named in this document (tags omitted).
UniProt P05429: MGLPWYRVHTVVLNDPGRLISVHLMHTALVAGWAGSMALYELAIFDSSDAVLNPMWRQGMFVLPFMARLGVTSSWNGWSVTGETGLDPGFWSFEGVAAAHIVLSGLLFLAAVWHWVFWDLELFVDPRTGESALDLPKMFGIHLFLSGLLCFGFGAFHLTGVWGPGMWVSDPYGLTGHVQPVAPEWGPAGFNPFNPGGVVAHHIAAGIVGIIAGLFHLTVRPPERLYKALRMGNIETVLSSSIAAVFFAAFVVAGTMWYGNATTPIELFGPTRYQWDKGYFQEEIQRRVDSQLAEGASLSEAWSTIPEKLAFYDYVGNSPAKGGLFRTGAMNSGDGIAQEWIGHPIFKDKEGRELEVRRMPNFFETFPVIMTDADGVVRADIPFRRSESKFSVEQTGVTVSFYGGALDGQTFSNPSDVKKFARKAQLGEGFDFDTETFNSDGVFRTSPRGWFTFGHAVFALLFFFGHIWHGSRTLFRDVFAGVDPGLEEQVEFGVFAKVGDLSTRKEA

Molecular target: His-tagged CP47 (PSII core antenna protein CP47) (Synechocystis sp. PCC 6803) (UniProt P05429)
Assay: pull-down

B1: Psb27 (PSII assembly factor) (protein, UniProt P74367 25-134)
chain: CDSGTGLTGNYSQDTLTVIATLREAIDLPQDAPNRQEVQDTARGQINDYISRYRRKGDAGGLKSFTTMQTALNSLAGYYTSYGARPIPEKLKKRLQLEFTQAERSIERGV
  binding: binds
